Our source for the binding values is patent US20130012436A1 (Bristol-Myers Squibb, published 2013).

Sequences of proteins named here, by UniProt entry; tags and fusion partners are left off. A change or cut given only in a name is not applied to a line headed by its entry. Residues count along the entry.
UniProt P02768: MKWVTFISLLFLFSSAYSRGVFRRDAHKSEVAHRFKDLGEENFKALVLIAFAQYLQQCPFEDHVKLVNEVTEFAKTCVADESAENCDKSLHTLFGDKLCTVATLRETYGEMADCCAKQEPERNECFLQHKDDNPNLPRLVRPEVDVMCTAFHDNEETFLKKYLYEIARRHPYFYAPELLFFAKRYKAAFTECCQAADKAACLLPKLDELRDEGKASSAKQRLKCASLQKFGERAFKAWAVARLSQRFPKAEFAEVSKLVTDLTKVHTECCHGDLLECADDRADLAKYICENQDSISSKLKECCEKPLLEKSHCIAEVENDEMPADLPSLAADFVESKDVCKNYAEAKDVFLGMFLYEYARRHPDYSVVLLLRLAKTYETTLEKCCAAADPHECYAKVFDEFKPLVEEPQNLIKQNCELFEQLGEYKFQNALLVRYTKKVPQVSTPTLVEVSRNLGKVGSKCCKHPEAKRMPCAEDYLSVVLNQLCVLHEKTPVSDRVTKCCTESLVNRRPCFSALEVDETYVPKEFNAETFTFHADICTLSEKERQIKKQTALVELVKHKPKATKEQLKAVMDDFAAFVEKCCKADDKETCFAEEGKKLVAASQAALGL
HSA-domain I-II construct: residues 25-403 of P02768
UniProt Q28522, residues 17-600: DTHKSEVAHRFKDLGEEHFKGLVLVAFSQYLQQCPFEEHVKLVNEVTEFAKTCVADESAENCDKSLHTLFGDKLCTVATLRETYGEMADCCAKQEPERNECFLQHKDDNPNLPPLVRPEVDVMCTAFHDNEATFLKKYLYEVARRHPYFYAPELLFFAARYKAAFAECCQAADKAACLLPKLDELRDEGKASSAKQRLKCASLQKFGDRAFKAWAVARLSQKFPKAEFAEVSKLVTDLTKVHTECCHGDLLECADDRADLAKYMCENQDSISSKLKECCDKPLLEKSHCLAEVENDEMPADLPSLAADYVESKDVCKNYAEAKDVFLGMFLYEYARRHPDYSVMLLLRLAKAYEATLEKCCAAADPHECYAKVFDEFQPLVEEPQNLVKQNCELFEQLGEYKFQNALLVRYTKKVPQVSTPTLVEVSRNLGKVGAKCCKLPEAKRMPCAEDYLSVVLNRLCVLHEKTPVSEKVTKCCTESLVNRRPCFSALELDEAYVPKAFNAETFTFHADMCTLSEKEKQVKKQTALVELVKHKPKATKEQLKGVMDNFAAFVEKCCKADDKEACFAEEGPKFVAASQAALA

No constants are given. Whether binding was seen depends on the method and setting. Some entries that bind do so weakly or less than the wild type.

For assay [1], the target named is HSA-domain I-II construct (human) (UniProt P02768). The assay is described as follows: Biacore with recombinant HSA fragments. For orientation: SPR reads the build-up and loss of mass on a sensor chip optically.
The target of the next assay is T1, rhesus serum albumin (rhesus, UniProt Q28522 17-600).
T1 construct: also called RhSA
The assay is described as follows: SPR, albumin captured on CM5 chip.

A further assay deals with T2, human serum albumin (human, UniProt P02768 25-609).
T2 construct: also called HSA
The assay is described as follows: Biacore, HSA or domain construct captured on chip.

Assay [2] concerns the target HSA-domain I-II construct (human) (UniProt P02768). The assay is described as follows: Biacore, HSA or domain construct captured on chip.

B1: SABA1.2 (designed binder)
chain: MGVSDVPRDLEVVAATPTSLLISWHSYYEQNSYYRITYGETGGNSPVQEFTVPYSQTTATISGLKPGVDYTITVYAVYGSKYYYPISINYRTEIEDEDEDEDED
notes: core 1 with (ED)5 extension
B1: in assay [1], the binding result is given as “binds”.

B2: SABA4.1 (designed binder)
chain: MGVSDVPRDLEMVAATPTSLLISWEDDSYYSRYYRITYGETGGNSPVQEFTVPSDLYTATISGLKPGVDYTITVYAVTYDVTDLIMHEPISINYRTEIDKPSQHHHHHH
On to B2, for which the binding entry with rhesus serum albumin and in the assay with human serum albumin was “binds” each time.

B3: SABA2.1 (designed binder)
chain: MGVSDVPRDLEVVAATPTSLLISWPKYDKTGHYYRITYGETGGNSPVQEFTVPTRQTTATISGLKPGVDYTITVYAVSKDDYYPHEHRPISINYRTEIDKPSQHHHHHH
For B3, the binding result in assay [2] is on record as “binds”.

B4: SABA1.1 (designed binder)
chain: MGVSDVPRDLEVVAATPTSLLISWHSYYEQNSYYRITYGETGGNSPVQEFTVPYSQTTATISGLKPGVDYTITVYAVYGSKYYYPISINYRTEIDKPSQHHHHHH
Turning to B4, the binding result in assay [2] is on record as “binds”.
